Results from article PMC6354162, “Development of a MD-LC-MS/MS Method to Analyze 3 Bioactive Compounds in Huoxuezhitong Rubber Patch and Application to a Pharmacokinetic Study in Rats” (Evidence-based Complementary and Alternative Medicine : eCAM, 2019).

Legend:
[1] = design: method as in PMID 28933096; conditions: microdialysis probe, in vivo; cited from earlier work
[2] = Adsorption rate to linear microdialysis probe with different perfusion fluids (reverse dialysis method); conditions: n=2

Structure (SMILES) | Recovery rate (RR) [1] | adsorption rate (AR) at the last sampling point ([2]; perfusion fluid 10%PG-10%Et-NS) | adsorption rate (AR) at the last sampling point ([2]; perfusion fluid 20% Et-NS) | adsorption rate (AR) at the last sampling point ([2]; perfusion fluid 20%PG-NS) | adsorption rate (AR) at the last sampling point ([2]; perfusion fluid 30% Et-NS)
C=CCc1ccc(O)c(OC)c1 [eugenol] | 45.06±1.66% | – | – | – | –
COc1ccc(C(C)=O)c(O)c1 [paeonol] | 46.80±1.66% | 4.90±1.67% | 6.58±1.13% | 3.72±0.35% | 2.37±1.32%
O=C(/C=C/C=C/c1ccc2c(c1)OCO2)N1CCCCC1 [piperine] | 34.15±2.06% | – | – | – | –
